This note sets out measurements from PMC4396693, “Structural Basis of Latrophilin-FLRT Interaction” (Structure(London, England:1993), 2015).

The chains behind the UniProt entries cited, without tags or fusion partners. Where a name states a change or a piece, a line headed by the entry shows the natural chain unless it says otherwise.
UniProt Q8BLU0: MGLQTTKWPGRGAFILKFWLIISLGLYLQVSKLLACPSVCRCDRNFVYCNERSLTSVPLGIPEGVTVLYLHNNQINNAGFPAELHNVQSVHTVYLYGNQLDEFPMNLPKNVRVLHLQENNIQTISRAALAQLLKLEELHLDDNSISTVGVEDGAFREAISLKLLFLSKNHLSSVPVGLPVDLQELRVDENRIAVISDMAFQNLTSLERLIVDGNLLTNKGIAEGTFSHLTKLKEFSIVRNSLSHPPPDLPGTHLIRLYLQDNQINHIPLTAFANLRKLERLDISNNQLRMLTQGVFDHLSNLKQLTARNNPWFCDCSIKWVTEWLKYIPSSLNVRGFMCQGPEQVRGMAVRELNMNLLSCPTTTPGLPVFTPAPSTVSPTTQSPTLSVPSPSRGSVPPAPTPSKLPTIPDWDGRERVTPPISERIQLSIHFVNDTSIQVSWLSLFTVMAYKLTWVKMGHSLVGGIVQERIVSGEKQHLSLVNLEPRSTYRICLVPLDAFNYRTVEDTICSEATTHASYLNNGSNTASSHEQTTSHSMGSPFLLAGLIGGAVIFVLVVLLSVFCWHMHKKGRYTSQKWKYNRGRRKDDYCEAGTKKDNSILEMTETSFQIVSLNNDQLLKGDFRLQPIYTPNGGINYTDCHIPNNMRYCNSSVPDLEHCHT

These are yes or no findings as the source states them, for the method shown. For some assays here: Binding calls can cover weak binding; strength is not graded here.

Assay [1] has as its target murine FLRT2^FF full ectodomain (non-dimerizing, non-FLRT-binding mutant) (murine) (UniProt Q8BLU0). The assay is described as follows: SPR; FLRT2 ectodomains (wild type, UF, FF) amine-coupled to a CM5 Biacore chip, LPHN3 Olf domain injected as analyte; equilibrium, 25°C, PBS pH 7.5, 0.005% polysorbate 20; 1:1 model; both purified. A general note: In SPR one partner is held on a chip, and binding of the other changes the refractive index at the surface.

The target in assay [2] is murine FLRT2^UF full ectodomain (non-Unc5-binding mutant) (murine) (UniProt Q8BLU0). Described as above.

B1: murine LPHN3 olfactomedin domain (LPHN3^Olf, residues 202-463) (domain or fragment, UniProt Q80TS3 202-463, looked up)
chain: LCPGLLKGVYQSEHLFESDHQSGAWCKDPLQASDKIYYMPWTPYRTDTLTEYSSKDDFIAGRPTTTYKLPHRVDGTGFVVYDGALFFNKERTRNIVKFDLRTRIKSGEAIIANANYHDTSPYRWGGKSDIDLAVDENGLWVIYATEQNNGKIVISQLNPYTLRIEGTWDTAYDKRSASNAFMICGILYVVKSVYEDDDNEATGNKIDYIYNTDQSKDSLVDVPFPNSYQYIAAVDYNPRDNLLYVWNNYHVVKYSLDFGPLD
notes: Latrophilin 3 (LPHN3), mouse, olfactomedin-like domain, residues 202-463; also called LPHN3 Olf domain; olfactomedin domain of murine LPHN3; source: kifunensine-treated HEK293T cells, transiently expressed, purified
For B1, the binding entry in assay [1] is “no binding”; in assay [2], “binds”.
